Assay results: patent US6455535B1, “Substituted aminoquinazolinone (thione) derivatives or salts thereof, intermediates thereof, and pest controllers and a method for using the same” (Nihon Nohyaku Co., Ltd., priority 1999, dated 2002)
Some of these results come from one statement about several compounds together.

Tested on: green peach aphid (Myzus persicae)
Assay: Control efficacy against green peach aphid, spray on potted Chinese cabbage (Test Example 1)
Type: in vivo
Settings: 500 ppm liquid chemical sprayed on stalks and leaves of Chinese cabbage; counted six days after spraying

In the case of O=C1Nc2ccc(OC(F)(F)F)cc2CN1/N=C/c1cccnc1 [Compound No. 30, 3-(3-pyridylmethylideneamino)-3,4-dihydro-6-trifluoromethoxy-2(1H)-quinazolinone], the “insecticidal effect rating (control efficacy)” value is reported as “A (100)”.
In the case of O=C1Nc2ccc(OC(F)(F)F)cc2CN1NCc1cccnc1 [Compound No. 208, 3-(3-pyridylmethylamino)-3,4-dihydro-6-trifluoromethoxy-2(1H)-quinazolinone], the “insecticidal effect rating (control efficacy)” value is reported as “A (100)”.
